Data published in publication PMC5362955.
These are yes or no findings as the source states them, for the method shown. Binding seen in cells or lysates may run through a third protein. Some binding calls cover weakened binding; strength is not graded here. For some of these results: Where a sequence is shown, tags or fusion partners need not be part of it.

Protein sequences, listed by entry. Tags and fused reporters are not part of them. Lines headed by an entry give the natural chain unless they say otherwise; changes in a name come on top.
UniProt Q9Y6W5: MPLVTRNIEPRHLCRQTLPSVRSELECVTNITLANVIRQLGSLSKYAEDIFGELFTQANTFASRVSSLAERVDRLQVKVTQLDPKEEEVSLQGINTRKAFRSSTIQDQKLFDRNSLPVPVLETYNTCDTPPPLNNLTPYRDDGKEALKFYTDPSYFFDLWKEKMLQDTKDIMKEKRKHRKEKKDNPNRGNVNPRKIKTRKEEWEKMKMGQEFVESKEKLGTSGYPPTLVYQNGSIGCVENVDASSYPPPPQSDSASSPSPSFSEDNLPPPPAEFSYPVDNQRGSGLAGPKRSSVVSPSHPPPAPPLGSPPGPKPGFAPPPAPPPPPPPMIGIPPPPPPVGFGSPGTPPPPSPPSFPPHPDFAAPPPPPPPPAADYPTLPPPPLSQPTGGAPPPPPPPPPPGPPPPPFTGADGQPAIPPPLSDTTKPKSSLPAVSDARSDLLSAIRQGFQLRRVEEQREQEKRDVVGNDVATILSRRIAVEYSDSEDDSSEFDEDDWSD

B1: Hem-1, endogenous in PBLs (protein, UniProt P55160 1-1127)
chain: MSLTSAYQHKLAEKLTILNDRGQGVLIRMYNIKKTCSDPKSKPPFLLEKSMEPSLKYINKKFPNIDVRNSTQHLGPVHREKAEIIRFLTNYYQSFVDVMEFRDHVYELLNTIDACQCHFDINLNFDFTRSYLDLIVTYTSVILLLSRIEDRRILIGMYNCAHEMLHGHGDPSFARLGQMVLEYDHPLKKLTEEFGPHTKAVSGALLSLHFLFVRRNQGAEQWRSAQLLSLISNPPAMINPANSDTMACEYLSVEVMERWIIIGFLLCHGCLNSNSQCQKLWKLCLQGSLYITLIREDVLQVHKVTEDLFSSLKGYGKRVADIKESKEHVIANSGQFHCQRRQFLRMAVKELETVLADEPGLLGPKALFAFMALSFIRDEVTWLVRHTENVTKTKTPEDYADSSIAELLFLLEGIRSLVRRHIKVIQQYHLQYLARFDALVLSDIIQNLSVCPEEESIIMSSFVSILSSLNLKQVDNGEKFEFSGLRLDWFRLQAYTSVAKAPLHLHENPDLAKVMNLIVFHSRMLDSVEKLLVETSDLSTFCFHLRIFEKMFAMTLEESAMLRYAIAFPLICAHFVHCTHEMCPEEYPHLKNHGLHHCNSFLEELAKQTSNCVLEICAEQRNLSEQLLPKHCATTISKAKNKKTRKQRQTPRKGEPERDKPGAESHRKNRSIVTNMDKLHLNLTELALTMNHVYSFSVFEHTIFPSEYLSSHLEARLNRAIVWLAGYNATTQEIVRPSELLAGVKAYIGFIQSLAQFLGADASRVIRNALLQQTQPLDSCGEQTITTLYTNWYLESLLRQASSGTIILSPAMQAFVSLPREGEQNFSAEEFSDISEMRALAELLGPYGMKFLSENLMWHVTSQIVELKKLVVENMDILVQIRSNFSKPDLMASLLPQLTGAENVLKRMTIIGVILSFRAMAQEGLREVFSSHCPFLMGPIECLKEFVTPDTDIKVTLSIFELASAAGVGCDIDPALVAAIANLKADTSSPEEEYKVACLLLIFLAVSLPLLATDPSSFYSIEKDGYNNNIHCLTKAIIQVSAALFTLYNKNIETHLKEFLVVASVSLLQLGQETDKLKTRNRESISLLMRLVVEESSFLTLDMLESCFPYVLLRNAYREVSRAFHLN
B2: Hem-1, co-precipitated with YFP-WAVE2 forms (protein, UniProt P55160 1-1127)
chain: B1 chain

Tests used:
[1] = molecular target: WASp family Verprolin-homologous protein-2 (WAVE2), endogenous in PBLs (human (endogenous in PBLs)) (UniProt Q9Y6W5); assay: co-IP; endogenous WAVE2 immunoprecipitated from PBL lysates, blotted for Hem-1 (first immunoprecipitation)
[2] = molecular target: WASp family Verprolin-homologous protein-2 (WAVE2), endogenous in PBLs (human (endogenous in PBLs)) (UniProt Q9Y6W5); assay: condition: only after boiling the immunoprecipitated proteins in SDS and re-immunoprecipitating WAVE2; co-IP; second WAVE2 immunoprecipitation after the precipitated complex was boiled 5 min in denaturation buffer (20 mM Tris-HCl pH 8, 50 mM NaCl, 5 mM DTT, 1% SDS, 1 mM sodium orthovanadate) and diluted with lysis buffer
[3] = molecular target: YFP-WAVE2 K45R (human) (UniProt Q9Y6W5); assay: co-IP; three forms of WAVE2 (wt, K45R, Δ25-64aa) immunoprecipitated, binding to Hem-1 compared (Supplementary Fig. S4); cells not given
[4] = molecular target: YFP-WAVE2 wt (human) (UniProt Q9Y6W5); assay: as above

| Binder | binding [1] | binding [2] | binding [3] | binding [4] |
| --- | --- | --- | --- | --- |
| B1 | binds | no binding |  |  |
| B2 |  |  | binds | binds |
